Test results: patent publication US6905818
No constants are given. Whether binding was seen depends on the method and setting. Some binding calls cover weakened binding; strength is not graded here.

Protein sequences, listed by entry. Tags and fused reporters are not part of them. Lines headed by an entry give the natural chain unless they say otherwise; changes in a name come on top.
UniProt P04386: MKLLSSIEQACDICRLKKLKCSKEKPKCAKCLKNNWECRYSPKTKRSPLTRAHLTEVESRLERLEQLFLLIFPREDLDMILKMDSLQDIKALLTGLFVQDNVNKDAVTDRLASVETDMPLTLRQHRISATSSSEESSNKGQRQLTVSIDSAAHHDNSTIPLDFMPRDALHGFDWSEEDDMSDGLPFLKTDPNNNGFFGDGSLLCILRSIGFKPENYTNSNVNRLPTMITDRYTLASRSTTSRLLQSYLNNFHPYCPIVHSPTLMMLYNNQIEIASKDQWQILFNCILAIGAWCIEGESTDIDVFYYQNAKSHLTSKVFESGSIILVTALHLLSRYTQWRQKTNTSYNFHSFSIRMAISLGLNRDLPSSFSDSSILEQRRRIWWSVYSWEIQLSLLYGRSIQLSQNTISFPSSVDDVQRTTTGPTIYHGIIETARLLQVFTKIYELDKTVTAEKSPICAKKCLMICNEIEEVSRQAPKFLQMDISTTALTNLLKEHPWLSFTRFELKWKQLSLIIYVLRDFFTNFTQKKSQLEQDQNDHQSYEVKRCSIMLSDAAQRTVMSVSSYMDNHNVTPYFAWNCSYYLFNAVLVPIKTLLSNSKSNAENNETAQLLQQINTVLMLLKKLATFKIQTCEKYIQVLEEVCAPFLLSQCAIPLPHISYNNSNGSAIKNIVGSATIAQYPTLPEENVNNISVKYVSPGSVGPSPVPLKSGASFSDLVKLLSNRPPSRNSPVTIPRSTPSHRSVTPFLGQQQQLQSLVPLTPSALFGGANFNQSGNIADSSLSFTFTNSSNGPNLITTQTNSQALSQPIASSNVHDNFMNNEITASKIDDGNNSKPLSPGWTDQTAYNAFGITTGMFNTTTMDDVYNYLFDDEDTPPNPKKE
UniProt P53762: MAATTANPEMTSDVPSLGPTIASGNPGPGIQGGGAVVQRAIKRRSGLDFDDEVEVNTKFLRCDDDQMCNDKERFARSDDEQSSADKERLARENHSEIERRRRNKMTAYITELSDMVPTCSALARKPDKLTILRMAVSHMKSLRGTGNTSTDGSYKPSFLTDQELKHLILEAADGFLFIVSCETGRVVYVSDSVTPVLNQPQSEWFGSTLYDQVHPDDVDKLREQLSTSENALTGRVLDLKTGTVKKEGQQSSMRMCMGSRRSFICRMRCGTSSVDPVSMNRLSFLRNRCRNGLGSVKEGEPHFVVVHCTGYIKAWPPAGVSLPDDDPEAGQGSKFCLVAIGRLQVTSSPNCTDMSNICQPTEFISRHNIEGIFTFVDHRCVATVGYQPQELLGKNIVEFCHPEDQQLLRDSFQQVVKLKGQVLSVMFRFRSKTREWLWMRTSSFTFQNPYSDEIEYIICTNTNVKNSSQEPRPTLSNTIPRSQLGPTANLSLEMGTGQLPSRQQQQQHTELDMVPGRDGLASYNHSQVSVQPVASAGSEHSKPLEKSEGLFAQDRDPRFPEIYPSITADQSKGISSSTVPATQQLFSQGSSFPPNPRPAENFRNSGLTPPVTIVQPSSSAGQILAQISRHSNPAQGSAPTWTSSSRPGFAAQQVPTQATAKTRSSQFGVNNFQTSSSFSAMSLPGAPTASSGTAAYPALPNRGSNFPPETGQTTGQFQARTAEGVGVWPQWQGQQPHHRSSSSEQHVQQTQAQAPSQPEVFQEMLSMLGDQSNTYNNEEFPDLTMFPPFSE
UniProt P0A7C2: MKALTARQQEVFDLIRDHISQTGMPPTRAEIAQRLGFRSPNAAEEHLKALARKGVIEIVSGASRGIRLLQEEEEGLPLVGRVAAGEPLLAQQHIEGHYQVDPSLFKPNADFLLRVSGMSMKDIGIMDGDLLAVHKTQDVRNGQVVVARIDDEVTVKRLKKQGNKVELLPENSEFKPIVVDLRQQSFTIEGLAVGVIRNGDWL

Columns and labels:
[1] = target: T1, GAL4ad-ARNT fusion protein (yeast) (UniProt P04386+P53762); assay: yeast two-hybrid, GFPuv reporter
[2] = target: T1, GAL4ad-ARNT fusion protein (yeast); assay: yeast two-hybrid, β-gal assay on spotted membranes (FIG. 11 legend)
[3] = target: T1, GAL4ad-ARNT fusion protein (yeast); assay: yeast two-hybrid positive clones 06L22 and 08N24 of the defined interaction library, members identified by hybridisation
[4] = target: T1, GAL4ad-ARNT fusion protein (yeast); assay: yeast two-hybrid, HIS3 and lacZ reporters with counterselection
[5] = target: T1, GAL4ad-ARNT fusion protein (yeast); assay: yeast two-hybrid, automated interaction mating, β-Gal assay
[6] = target: T1, GAL4ad-ARNT fusion protein (yeast); assay: yeast two-hybrid, β-gal assay on spotted membranes

- binding [1]: binds
- binding [2]: binds
- binding [3]: binds
- binding [4]: binds
- binding [5]: binds
- binding [6]: binds
Substance: LexA-SIM1 fusion protein (from UniProt P0A7C2 1-202; Q61045 1-366)
